According to the supplement of paper PMC10331698:
± gives the standard deviation of the averaged measurements. Most values lie at the level of the controls, where differences are scatter.

What was measured:
Test in all cases: level (log10 ratio to DMSO vehicle control); higher = higher biomarker level / cell amount than vehicle control
[1] = compound: C=C(C)C(=O)OCC(F)(F)C(F)(F)C(F)(F)C(F)(F)C(F)(F)C(F)(F)C(F)(F)F; settings: in DMSO
Method: (§1)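 BioMAP Diversity Plus panel of 12 human primary cell co-culture systems (3C, 4H, LPS, SAg, BT, BF4T, BE3C, CASM3C, HDF3CGF, KF3CT, MyoF, Mphg). Compounds were added 1 h before stimulation and left for 24 h (MyoF 48 h; BT 72 h for soluble read-outs or 6 d for IgG). Biomarkers were read by ELISA, cytotoxicity by SRB, PBMC viability and proliferation by Alamar Blue. Each well value was divided by the mean of 8 DMSO control wells on the same plate and log10 transformed; duplicate blinded samples were tested at 4 concentrations.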

[2] = compound: C=CC(=O)OCC(F)(F)C(F)(F)C(F)(F)C(F)(F)C(F)(F)C(F)(F)C(F)(F)F [1H,1H-Perfluorooctyl acrylate]; settings: 2200 nM; in DMSO
Method: as §1

[3] = compound: C=CC(F)(F)C(F)(F)C(F)(F)C(F)(F)C(F)(F)C(F)(F)C(F)(F)C(F)(F)C=C [1,8-Divinylperfluorooctane]; settings: in DMSO
Method: as §1

[4] = compound: COC(=O)C(F)(F)C(F)(F)OC(F)(C(F)(F)F)C(F)(F)OC(F)=C(F)F [Methyl perfluoro(3-(1-ethenyloxypropan-2-yloxy)propanoate)]; settings: in DMSO
Method: as §1

[5] = compound: CO[Si](C)(CCC(F)(F)C(F)(F)C(F)(F)C(F)(F)C(F)(F)C(F)(F)F)OC [Dimethoxymethyl((perfluorohexyl)ethyl)silane]; settings: in DMSO
Method: as §1

[6] = compound: FC(F)(F)C(F)(F)C(F)(F)CC1CO1 [1H,1H-Heptafluorobutyl epoxide]; settings: 2200 nM; in DMSO
Method: as §1

Heptafluorobutyl iodide = compound: FC(F)(F)C(F)(F)C(F)(F)CI [Heptafluorobutyl iodide]; settings: 2200 nM; in DMSO
Method: as §1

[7] = compound: NC(=O)C(F)(F)C(F)(F)C(F)(F)C(F)F; settings: in DMSO
Method: as §1

Pentafluoropropionamide = compound: NC(=O)C(F)(F)C(F)(F)F [Pentafluoropropionamide]; settings: 2200 nM; in DMSO
Method: as §1

[8] = compound: NS(=O)(=O)C(F)(F)C(F)(F)C(F)(F)C(F)(F)C(F)(F)C(F)(F)C(F)(F)C(F)(F)F [Perfluorooctanesulfonamide]; settings: in DMSO
Method: as §1

[9] = compound: O=C(O)C(F)(F)C(F)(F)C(F)F [4H-Perfluorobutanoic acid]; settings: in DMSO
Method: as §1

[10] = compound: O=P(O)(O)CCC(F)(F)C(F)(F)C(F)(F)C(F)(F)C(F)(F)C(F)(F)F [2-(Perfluorohexyl)ethylphosphonic acid]; settings: 2200 nM; in DMSO
Method: as §1

[11] = compound: O=S(=O)(F)C(F)(F)C(F)(F)C(F)(F)C(F)(F)C(F)(F)C(F)(F)C(F)(F)C(F)(F)F [Perfluorooctanesulfonyl fluoride]; settings: 2200 nM; in DMSO
Method: as §1

[12] = compound: O=S(=O)(O)C(F)(F)C(F)(F)C(F)(F)C(F)(F)C(F)(F)C(F)(F)C(F)(F)C(F)(F)F [Perfluorooctanesulfonic acid]; settings: 2200 nM; in DMSO
Method: as §1

[13] = compound: O=S(=O)(O)C(F)(F)C(F)(F)C(F)(F)C(F)(F)C(F)(F)C(F)(F)C(F)(F)C(F)(F)F [Potassium perfluorooctanesulfonate]; settings: 2200 nM; in DMSO
Method: as §1

[14] = compound: O=S(=O)(OCC(F)(F)F)C(F)(F)C(F)(F)C(F)(F)C(F)(F)F [2,2,2-Trifluoroethyl perfluorobutanesulfonate]; settings: 2200 nM; in DMSO
Method: as §1

[15] = compound: OCC(F)(F)C(F)(F)C(F)(F)C(F)(F)C(F)(F)C(F)F [1H,1H,7H-Dodecafluoro-1-heptanol]; settings: 2200 nM; in DMSO
Method: as §1

[16] = compound: OCCCCC(F)(F)C(F)(F)C(F)(F)C(F)(F)F [4:4 Fluorotelomer alcohol]; settings: 2200 nM; in DMSO
Method: as §1

Test System	level (log10) ([1]; 740 nM)	level (log10) ([1]; 2200 nM)	level (log10) [2]	level (log10) ([3]; 740 nM)	level (log10) ([3]; 2200 nM)	level (log10) ([4]; 740 nM)	level (log10) ([4]; 2200 nM)	level (log10) ([5]; 740 nM)	level (log10) ([5]; 2200 nM)	level (log10) [6]	level (log10) (Heptafluorobutyl iodide)	level (log10) ([7]; 2200 nM)	level (log10) ([7]; 6700 nM)	level (log10) ([7]; 20000 nM)	level (log10) ([7]; 60000 nM)	level (log10) (Pentafluoropropionamide)	level (log10) ([8]; 2200 nM)	level (log10) ([8]; 6700 nM)	level (log10) ([8]; 20000 nM)	level (log10) ([9]; 2200 nM)	level (log10) ([9]; 6700 nM)	level (log10) ([9]; 20000 nM)	level (log10) ([9]; 60000 nM)	level (log10) [10]	level (log10) [11]	level (log10) [12]	level (log10) [13]	level (log10) [14]	level (log10) [15]	level (log10) [16]
lMphg:sIL-10	0.0515 ± 0.043	-0.0095 ± 0.036	-0.0455 ± 0.026	0.004 ± 0.045	0.02 ± 0.061	0.0235 ± 0.061	-0.029 ± 0.0071	0.0155 ± 0.053	-0.0125 ± 0.049	0.002 ± 0.027	0.044 ± 0.0085	0.04 ± 0.033	-0.013 ± 0.023	-0.0715 ± 0.005	-0.021 ± 0.047	0.0105 ± 0.039	-0.0535 ± 0.1	-0.068 ± 0.021	-0.169 ± 0.025	0 ± 0.028	-0.0495 ± 0.096	-0.0605 ± 0.054	-0.019 ± 0.0014	-0.0875 ± 0.037	0.0495 ± 0.013	-0.046 ± 0.031	0.0225 ± 0.0035	0.045 ± 0.064	0.042 ± 0.054	-0.028 ± 0.037
SAg:CXCL9/MIG	0.0025 ± 0.005	-0.009 ± 0.0071	0 ± 0.011	-0.018	-0.0315 ± 0.0064	-0.0055 ± 0.0092	-0.0105 ± 0.011	0.0045 ± 0.016	0.014 ± 0.016	-0.0105 ± 0.00071	-0.004 ± 0.0042	-0.0015 ± 0.026	-0.0015 ± 0.0021	-0.0055 ± 0.005	0.0105 ± 0.0021	-0.0045 ± 0.005	0.0135 ± 0.022	-0.002 ± 0.0042	-0.0055 ± 0.011	0.0225 ± 0.018	-0.0115 ± 0.00071	-0.0035 ± 0.0078	0.0095 ± 0.016	0.004 ± 0.023	0.003 ± 0.0028	0.001 ± 0.014	0.006 ± 0.0057	-0.005 ± 0.025	0.005 ± 0.0099	0.0075 ± 0.005
LPS:CXCL8/IL-8	0.0025 ± 0.025	-0.003 ± 0.024	0.0265 ± 0.026	0.0135 ± 0.018	-0.0015 ± 0.018	0.006 ± 0.0099	0.018 ± 0.0085	0.021 ± 0.044	0.0225 ± 0.016	-0.007 ± 0.014	0.0265 ± 0.094	0.011 ± 0.021	-0.0055 ± 0.0035	-0.0025 ± 0.035	0.016 ± 0.12	0.0075 ± 0.015	-0.001 ± 0.011	0.005 ± 0.016	-0.008 ± 0.0014	-0.011 ± 0.028	-0.0155 ± 0.019	-0.008 ± 0.02	0.018 ± 0.024	0.0145 ± 0.077	0.0165 ± 0.022	0.0185 ± 0.022	0.002 ± 0.072	0.0045 ± 0.023	0.0005 ± 0.046	0.036 ± 0.028
HDF3CGF:CXCL9/MIG	0.0005 ± 0.03	-0.023 ± 0.021	-0.0015 ± 0.03	-0.01 ± 0.047	-0.0055 ± 0.0035	-0.0125 ± 0.028	0.004 ± 0.0042	-0.018 ± 0.0085	-0.027 ± 0.0099	-0.011 ± 0.048	-0.017 ± 0.018	0.0005 ± 0.0078	0.0055 ± 0.00071	-0.0065 ± 0.012	-0.0025 ± 0.0035	-0.0255 ± 0.019	-0.091 ± 0.082	-0.203 ± 0.011	-0.761 ± 0.11	-0.0245 ± 0.00071	-0.0015 ± 0.033	-0.0035 ± 0.025	-0.0125 ± 0.028	-0.0105 ± 0.016	-0.016 ± 0.041	-0.004 ± 0.028	0.003 ± 0.0042	-0.0025 ± 0.035	0.024 ± 0.052	-0.0075 ± 0.015
